Results are given in words; binding and its absence hold for the method and conditions named. Binding seen in cells or lysates may run through a third protein. Some binding calls cover weakened binding; strength is not graded here. Sequences can lack the tags named with a protein.
Molecular target: EPRS (glutamyl-prolyl tRNA synthetase) (human (endogenous in HeLa or HEK293T; the cell line is not stated for this experiment)) (UniProt P07814)
Experiment: co-IP; immunoprecipitation with anti-EPRS and anti-Myc antibodies from cell protein extracts; data not shown

Amino acid sequences for entries named in this document (tags omitted).
UniProt P07814: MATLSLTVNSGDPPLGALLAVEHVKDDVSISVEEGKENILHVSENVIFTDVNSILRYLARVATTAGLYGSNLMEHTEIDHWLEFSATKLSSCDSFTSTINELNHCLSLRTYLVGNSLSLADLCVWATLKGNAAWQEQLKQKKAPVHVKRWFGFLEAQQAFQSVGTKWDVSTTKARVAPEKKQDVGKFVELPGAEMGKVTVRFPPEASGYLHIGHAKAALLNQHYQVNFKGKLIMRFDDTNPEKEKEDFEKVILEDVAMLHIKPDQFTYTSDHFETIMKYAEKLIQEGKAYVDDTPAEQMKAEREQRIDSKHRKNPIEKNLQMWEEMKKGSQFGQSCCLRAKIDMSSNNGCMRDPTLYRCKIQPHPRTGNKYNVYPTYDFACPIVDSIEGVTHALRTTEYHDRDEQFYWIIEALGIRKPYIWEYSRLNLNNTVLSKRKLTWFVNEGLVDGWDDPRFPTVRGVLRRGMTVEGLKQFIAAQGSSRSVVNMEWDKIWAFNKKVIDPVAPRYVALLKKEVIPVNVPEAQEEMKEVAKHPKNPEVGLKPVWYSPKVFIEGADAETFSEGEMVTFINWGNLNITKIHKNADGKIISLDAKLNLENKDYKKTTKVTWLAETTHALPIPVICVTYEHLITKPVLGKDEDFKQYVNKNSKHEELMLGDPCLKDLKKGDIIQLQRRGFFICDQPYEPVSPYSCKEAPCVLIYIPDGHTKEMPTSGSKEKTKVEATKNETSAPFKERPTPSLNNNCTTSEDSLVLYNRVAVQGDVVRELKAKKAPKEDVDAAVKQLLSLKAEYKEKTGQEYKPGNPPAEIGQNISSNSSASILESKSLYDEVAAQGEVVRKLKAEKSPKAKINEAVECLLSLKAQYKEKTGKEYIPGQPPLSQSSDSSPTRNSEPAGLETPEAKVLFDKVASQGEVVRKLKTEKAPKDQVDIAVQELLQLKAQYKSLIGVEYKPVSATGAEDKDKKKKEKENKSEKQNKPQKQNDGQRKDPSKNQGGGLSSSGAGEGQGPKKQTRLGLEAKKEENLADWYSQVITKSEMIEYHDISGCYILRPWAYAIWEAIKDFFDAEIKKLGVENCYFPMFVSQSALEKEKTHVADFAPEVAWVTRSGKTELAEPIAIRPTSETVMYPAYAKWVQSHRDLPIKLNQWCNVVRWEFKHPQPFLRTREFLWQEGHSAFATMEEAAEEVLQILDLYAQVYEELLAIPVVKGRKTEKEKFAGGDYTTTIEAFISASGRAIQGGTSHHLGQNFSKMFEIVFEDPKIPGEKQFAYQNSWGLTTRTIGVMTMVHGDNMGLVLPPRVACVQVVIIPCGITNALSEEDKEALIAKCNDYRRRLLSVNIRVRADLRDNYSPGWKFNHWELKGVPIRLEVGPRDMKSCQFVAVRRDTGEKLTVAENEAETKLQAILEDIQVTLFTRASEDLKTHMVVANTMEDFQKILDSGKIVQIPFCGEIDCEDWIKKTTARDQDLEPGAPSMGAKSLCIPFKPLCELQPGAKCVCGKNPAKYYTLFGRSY

binding: binds
B1: Myc–MRS-SD mutant (methionyl-tRNA synthetase S209D/S825D) (enzyme, UniProt P56192 1-900)
chain: MRLFVSDGVPGCLPVLAAAGRARGRAEVLISTVGPEDCVVPFLTRPKVPVLQLDSGNYLFSTSAICRYFFLLSGWEQDDLTNQWLEWEATELQPALSAALYYLVVQGKKGEDVLGSVRRALTHIDHSLSRQNCPFLAGETESLADIVLWGALYPLLQDPAYLPEELSALHSWFQTLSTQEPCQRAAETVLKQQGVLALRPYLQKQPQPDPAEGRAVTNEPEEEELATLSEEEIAMAVTAWEKGLESLPPLRPQQNPVLPVAGERNVLITSALPYVNNVPHLGNIIGCVLSADVFARYSRLRQWNTLYLCGTDEYGTATETKALEEGLTPQEICDKYHIIHADIYRWFNISFDIFGRTTTPQQTKITQDIFQQLLKRGFVLQDTVEQLRCEHCARFLADRFVEGVCPFCGYEEARGDQCDKCGKLINAVELKKPQCKVCRSCPVVQSSQHLFLDLPKLEKRLEEWLGRTLPGSDWTPNAQFITRSWLRDGLKPRCITRDLKWGTPVPLEGFEDKVFYVWFDATIGYLSITANYTDQWERWWKNPEQVDLYQFMAKDNVPFHSLVFPCSALGAEDNYTLVSHLIATEYLNYEDGKFSKSRGVGVFGDMAQDTGIPADIWRFYLLYIRPEGQDSAFSWTDLLLKNNSELLNNLGNFINRAGMFVSKFFGGYVPEMVLTPDDQRLLAHVTLELQHYHQLLEKVRIRDALRSILTISRHGNQYIQVNEPWKRIKGSEADRQRAGTVTGLAVNIAALLSVMLQPYMPTVSATIQAQLQLPPPACSILLTNFLCTLPAGHQIGTVSPLFQKLENDQIESLRQRFGGGQAKTDPKPAVVETVTTAKPQQIQALMDEVTKQGNIVRELKAQKADKNEVAAEVAKLLDLKKQLAVAEGKPPEAPKGKKKK

Source: PMC4179492
